Test results published in US20220046917A1, “ATTRACTANT BLEND COMPOSITIONS, DEVICES AND METHODS FOR ATTRACTING FEMALE MICE” (priority 2020, published 2022).
Some compounds share one wording; it may come from a single statement.

Assay: GC-MS analysis of headspace odorants emanating from urine- and feces-soiled bedding of mice
Set-up: species or system Mus musculus
Settings: for Mean abundance (%) Female: headspace odorants of soiled bedding of female mice; for Mean abundance (%) Female / Mean abundance (%) Male: GC-MS; for Mean abundance (%) Male: headspace odorants of soiled bedding of male mice; for change in abundance in headspace odorants of male mice: males progressing from 30 to 33 days of age

Compound	Mean abundance (%) Female [%]	Mean abundance (%) Male [%]	change in abundance in headspace odorants of male mice
C=C1CC/C=C(\C)CC[C@@H]2[C@@H]1CC2(C)C (relative stereo) [trans-caryophyllene]	0.21	0.3	
CCCCCCO [1-hexanol]	0.15		markedly increased in abundance
C=CC(O)CCCCC (centres unmarked) [1-octen-3-ol]	1.68	2.46	
CCCCCO [1-pentanol]	0.27	0.35	
CSCSSC [2,3,5-trithiahexane]	0.12	8.91	
CC(=O)C1=NCCC1 [2-acetyl-pyrroline]	0.12	1.03	
CCCCCC(C)=O [2-heptanone]	32.83	43.6	
CCCC(C)=O [2-pentanone]	0.18	0.4	
CCC(C)C1=NCCS1 (centres unmarked) [2-sec-butyl-4,5-dihydrothiazole, reference compound]	0.0	5.56	markedly increased in abundance
CCCCCCCCCC(C)=O [2-undecanone]	0.21	0.13	
CCC1OC2(C)C=CCC1O2 (stereo not drawn) [3,4-dehydro-exo-7-ethyl-5-methyl-6,8-dioxabicyclo[3.2.1]octane, reference compound]	2.84	7.4	increase markedly
CC(C)=CCO [3-methyl-2-buten-1-ol]	0.20	0.42	
CCC(C)C(C)=O (centres unmarked) [3-methyl-2-pentanone]	0.01	0.33	markedly increased in abundance
C=C(C)CCO [3-methyl-3-buten-1-ol]	6.96	4.6	
CC(C)CC(=O)O [3-methylbutyric acid]	3.30	0.0	
CCCC(=O)CCC [4-heptanone]	1.52	0.0	
CCC(=O)CCC(C)C [6-methyl-3-heptanone]	6.39	4.44	
CCC/C=C/C(C)=O [E3-2-heptenone]	2.3	2.15	
C/C=C/CCC(C)=O [E5-2-heptenone]	5.6	4.06	
CC(=O)c1ccccc1 [acetophenone]	1.64	3.61	
CCCC(=O)O [butyric acid]	29.74	0.0	
CSSSC [dimethyl trisulfide]	0.46	1.2	
CC(=O)CC/C=C(\C)CCC=C(C)C [geranylacetone]	0.24	0.69	
C/C1=C\CC/C(C)=C/CC(C)(C)/C=C/C1 [α-humulene]	0.73	0.74	
C=CC(=C)CC/C=C(\C)CCC=C(C)C [β-farnesene]	0.39	1.37	
